Reference: paper PMC6052020
Results are given in words; binding and its absence hold for the method and conditions named. In cells and extracts the contact can be indirect. Some binding calls cover weakened binding; strength is not graded here.

Chains of the proteins cited; added tags and fusions are not shown.
UniProt Q9CW03: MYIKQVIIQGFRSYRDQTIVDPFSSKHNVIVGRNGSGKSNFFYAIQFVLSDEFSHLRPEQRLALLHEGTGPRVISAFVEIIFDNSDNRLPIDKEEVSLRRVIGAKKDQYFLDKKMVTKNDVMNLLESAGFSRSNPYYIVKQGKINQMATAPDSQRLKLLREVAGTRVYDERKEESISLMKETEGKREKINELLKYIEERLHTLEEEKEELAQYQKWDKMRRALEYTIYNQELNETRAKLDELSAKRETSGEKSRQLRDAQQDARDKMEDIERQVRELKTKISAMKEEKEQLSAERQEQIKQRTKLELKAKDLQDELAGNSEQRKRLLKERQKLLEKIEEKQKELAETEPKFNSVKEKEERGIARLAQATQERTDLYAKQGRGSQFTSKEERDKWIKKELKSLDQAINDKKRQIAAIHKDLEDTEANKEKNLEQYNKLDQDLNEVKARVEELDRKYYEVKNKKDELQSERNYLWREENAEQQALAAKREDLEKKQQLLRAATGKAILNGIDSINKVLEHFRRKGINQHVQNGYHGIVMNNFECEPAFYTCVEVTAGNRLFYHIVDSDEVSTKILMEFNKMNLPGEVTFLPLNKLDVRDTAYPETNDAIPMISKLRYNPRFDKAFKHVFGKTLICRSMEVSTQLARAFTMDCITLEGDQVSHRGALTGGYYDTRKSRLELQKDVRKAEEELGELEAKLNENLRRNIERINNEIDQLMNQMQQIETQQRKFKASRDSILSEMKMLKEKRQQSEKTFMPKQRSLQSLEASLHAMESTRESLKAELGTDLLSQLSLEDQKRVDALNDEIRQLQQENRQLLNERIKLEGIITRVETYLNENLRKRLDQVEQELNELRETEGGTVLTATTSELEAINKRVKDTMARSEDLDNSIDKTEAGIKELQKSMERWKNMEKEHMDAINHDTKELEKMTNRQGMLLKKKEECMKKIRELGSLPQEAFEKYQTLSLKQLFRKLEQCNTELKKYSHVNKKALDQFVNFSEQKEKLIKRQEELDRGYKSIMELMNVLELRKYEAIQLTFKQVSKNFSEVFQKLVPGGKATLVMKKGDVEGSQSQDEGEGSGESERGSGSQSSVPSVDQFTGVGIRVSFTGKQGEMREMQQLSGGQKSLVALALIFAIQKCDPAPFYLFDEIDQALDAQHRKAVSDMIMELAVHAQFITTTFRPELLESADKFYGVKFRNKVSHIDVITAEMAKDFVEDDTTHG

T1: nucleoporin 107 (NUP107) (mouse (endogenous in XEN cells)) (UniProt Q8BH74)
T1 sequence: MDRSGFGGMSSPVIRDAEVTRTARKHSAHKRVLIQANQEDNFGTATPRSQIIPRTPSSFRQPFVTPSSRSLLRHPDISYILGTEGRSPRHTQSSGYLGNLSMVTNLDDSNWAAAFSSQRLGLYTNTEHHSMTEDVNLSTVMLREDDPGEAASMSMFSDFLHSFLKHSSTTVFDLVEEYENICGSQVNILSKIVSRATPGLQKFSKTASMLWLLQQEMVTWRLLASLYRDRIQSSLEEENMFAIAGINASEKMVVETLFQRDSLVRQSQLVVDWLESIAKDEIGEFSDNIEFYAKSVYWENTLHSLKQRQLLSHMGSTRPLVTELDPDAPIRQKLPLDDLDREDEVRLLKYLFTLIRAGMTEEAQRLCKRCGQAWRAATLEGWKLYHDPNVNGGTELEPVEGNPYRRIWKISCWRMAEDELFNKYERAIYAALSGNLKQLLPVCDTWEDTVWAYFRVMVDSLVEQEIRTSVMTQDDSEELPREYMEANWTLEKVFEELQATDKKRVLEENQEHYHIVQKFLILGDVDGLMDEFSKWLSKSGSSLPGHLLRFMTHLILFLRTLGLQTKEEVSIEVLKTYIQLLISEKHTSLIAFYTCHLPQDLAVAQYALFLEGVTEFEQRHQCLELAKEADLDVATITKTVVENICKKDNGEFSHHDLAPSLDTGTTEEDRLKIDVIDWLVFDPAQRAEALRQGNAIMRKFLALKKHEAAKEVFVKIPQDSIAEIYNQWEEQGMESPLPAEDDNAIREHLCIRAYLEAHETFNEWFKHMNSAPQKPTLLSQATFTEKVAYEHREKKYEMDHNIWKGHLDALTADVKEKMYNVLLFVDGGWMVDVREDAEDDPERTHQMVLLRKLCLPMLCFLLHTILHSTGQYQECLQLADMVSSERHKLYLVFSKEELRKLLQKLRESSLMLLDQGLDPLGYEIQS


Biological target: T1, nucleoporin 107 (NUP107) (mouse (endogenous in XEN cells))
Experiment: co-IP; 50 ug XEN cell nuclear lysate incubated with mAb414 or NUP153 antibody, RNase A, DNase I and protease inhibitor overnight at 4 C; Dynabeads Protein G 1 h at 4 C; washed with 0.1% Tween-20 in PBS; western blot with CTCF, SMC1A and SMC3 antibodies; cells treated with siNT (control), Nup107/62, Nup153, Nup107 or Nup62 siRNAs

binding	Molecule
binds	structural maintenance of chromosomes 3 (SMC3) (from UniProt Q9CW03 1-1217)
binds	structural maintenance of chromosomes 1a (SMC1A) (protein, UniProt Q9CU62 1-1233) MGFLKLIEIENFKSYKGRQIIGPFQRFTAIIGPNGSGKSNLMDAISFVLGEKTSNLRVKTLRDLIHGAPVGKPAANRAFVSMVYSEEGAEDRTFARVIVGGSSEYKINNKVVQLHEYSEELEKLGILIKARNFLVFQGAVESIAMKNPKERTALFEEISRSGELAQEYDKRKKEMVKAEEDTQFNYHRKKNIAAERKEAKQEKEEADRYQRLKDEVVRAQVQLQLFKLYHNEVEIEKLNKELASKNKEIEKDKKRMDKVEDELKEKKKELGKMMREQQQIEKEIKEKDSELNQKRPQYIKAKENTSHKIKKLEAAKKSLQNAQKHYKKRKGDMDELEKEMLSVEKARQEFEERMEEESQSQGRDLTLEENQVKKYHRLKEEASKRAATLAQELEKFNRDQKADQDRLDLEERKKVETEAKIKQKLREIEENQKRIEKLEEYITTSKQSLEEQKKLEGELTEEVEMAKRRIDEINKELNQVMEQLGDARIDRQESSRQQRKAEIMESIKRLYPGSVYGRLIDLCQPTQKKYQIAVTKVLGKNMDAIIVDSEKTGRDCIQYIKEQRGEPETFLPLDYLEVKPTDEKLRELKGAKLVIDVIRYEPPHIKKALQYACGNALVCDNVEDARRIAFGGHQRHKTVALDGTLFQKSGVISGGASDLKAKARRWDEKAVDKLKEKKERLTEELKEQMKAKRKEAELRQVQSQAHGLQMRLKYSQSDLEQTKTRHLALNLQEKSKLESELANFGPRINDIKRIIQSREREMKDLKEKMNQVEDEVFEEFCREIGVRNIREFEEEKVKRQNEIAKKRLEFENQKTRLGIQLDFEKNQLKEDQDKVHMWEQTVKKDENEIEKLKKEEQRHMKIIDETMAQLQDLKNQHLAKKSEVNDKNHEMEEIRKKLGGANKEMTHLQKEVTAIETKLEQKRSDRHNLLQACKMQDIKLPLSKGTMDDISQEEGSSQGEESVSGSQRTSSIYAREALIEIDYGDLCEDLKDAQAEEEIKQEMNTLQQKLNEQQSVLQRIAAPNMKAMEKLESVRDKFQETSDEFEAARKRAKKAKQAFEQIKKERFDRFNACFESVATNIDEIYKALSRNSSAQAFLGPENPEEPYLDGINYNCVAPGKRFRPMDNLSGGEKTVAALALLFAIHSYKPAPFFVLDEIDAALDNTNIGKVANYIKEQSTCNFQAIVISLKEEFYTKAESLIGVYPEQGDCVISKVLTFDLTKYPDANPNPNEQ
binds	CCCTC-binding factor (CTCF) (protein, UniProt Q61164 1-736) MEGEAVEAIVEESETFIKGKERKTYQRRREGGQEEDACHLPQNQTDGGEVVQDVNSSVQMVMMEQLDPTLLQMKTEVMEGTVAPEAEAAVDDTQIITLQVVNMEEQPINIGELQLVQVPVPVTVPVATTSVEELQGAYENEVSKEGLAESEPMICHTLPLPEGFQVVKVGANGEVETLEQGELPPQEDSSWQKDPDYQPPAKKTKKTKKSKLRYTEEGKDVDVSVYDFEEEQQEGLLSEVNAEKVVGNMKPPKPTKIKKKGVKKTFQCELCSYTCPRRSNLDRHMKSHTDERPHKCHLCGRAFRTVTLLRNHLNTHTGTRPHKCPDCDMAFVTSGELVRHRRYKHTHEKPFKCSMCDYASVEVSKLKRHIRSHTGERPFQCSLCSYASRDTYKLKRHMRTHSGEKPYECYICHARFTQSGTMKMHILQKHTENVAKFHCPHCDTVIARKSDLGVHLRKQHSYIEQGKKCRYCDAVFHERYALIQHQKSHKNEKRFKCDQCDYACRQERHMIMHKRTHTGEKPYACSHCDKTFRQKQLLDMHFKRYHDPNFVPAAFVCSKCGKTFTRRNTMARHADNCAGPDGVEGENGGETKKSKRGRKRKMRSKKEDSSDSEENAEPDLDDNEEEEEPAVEIEPEPEPQPQPPPPPQPVAPAPPPAKKRRGRPPGRTNQPKQNQPTAIIQVEDQNTGAIENIIVEVKKEPDAEPAEGEEEEAQAATTDAPNGDLTPEMILSMMDR
